Test results published in patent publication US20100210525A1 (University of California, published 2010).
These are yes or no findings as the source states them, for the method shown. Some binding calls cover weakened binding; strength is not graded here.

By UniProt entry, the sequences of proteins in these tests, tags left out. Residues count along the entry.
UniProt P26039, residues 309-405: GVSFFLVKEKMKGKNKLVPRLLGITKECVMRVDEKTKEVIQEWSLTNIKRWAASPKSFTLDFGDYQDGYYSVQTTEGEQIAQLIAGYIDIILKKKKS

Experiments:
[1] = target: T1, Talin F3 sub-domain, wild type (mouse, UniProt P26039 309-405, limits assumed); assay: 1H-15N HSQC NMR titration of talin F3
T1 construct: domain: F3 sub-domain; U-15N labelled for NMR; also called Talin F3 wt; talin F3 domain

[2] = target: T1, Talin F3 sub-domain, wild type; assay: 1H-15N HSQC NMR titration of 15N talin F3 with the peptide, weighted shift map per residue
[3] = target: T1, Talin F3 sub-domain, wild type; assay: 1H-15N HSQC NMR titration of 15N talin F3 with the peptide, weighted shift map per residue [third panel]

Measured: binding

WDTANNPLYDEA [MD peptide (membrane-distal β3 integrin tail peptide)]
binds: all assays above
